Measured data: PubChem BioAssay AID504804 (Drosophila RNAi Screening Center, 2011)

- Purpose: 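dsRNAs that improve Kc cell survival under doxorubicin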 (primary screen)
- Cell system: Drosophila Kc cells
- Reagent: long dsRNA against Drosophila genes, 0.5 µg dsRNA per well
- Duration: 96 h (48 h knock-down, then 48 h drug)
- Treatment: doxorubicin 5 µg/ml for 48 h, added 48 h after dsRNA
- Read-out: 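Viability measured as cellular ATP by luminescence after 48 h knock-down then 48 h doxorubicin at 5 µg/ml; unnormalised plate counts for each replicate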
- Direction: raw ATP luminescence: higher = more viable cells, protection from doxorubicin
- Rule for the call: 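z-score of 2 or more over plate mean in both duplicates, retained only when retests and separate dsRNAs confirm the protection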
The screen tested about 19,000 reagents; below is an unselected part of those that have a named target and a result. Of all reagents, 47 (0.25%) are marked active. 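Signals are raw, not normalised; exact z-scores behind calls not deposited; actives needed confirmation, so some wells reaching 2 SD are inactive.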 Unmarked entries are inactive. The numbers tell different reagents against one gene apart.

CG14502 (GeneID 37092): raw ATP luminescence, replicate 1 = 48067; raw ATP luminescence, replicate 2 = 58233
Ets98B (GeneID 43334): raw ATP luminescence, replicate 1 = 36790; raw ATP luminescence, replicate 2 = 47090
mdy (GeneID 44887) #1: raw ATP luminescence, replicate 1 = 2.52e5; raw ATP luminescence, replicate 2 = 2.55e5
mdy (GeneID 44887) #2: raw ATP luminescence, replicate 1 = 91413; raw ATP luminescence, replicate 2 = 60157
CG34375 (GeneID 42715) #1: raw ATP luminescence, replicate 1 = 71380; raw ATP luminescence, replicate 2 = 56980
CG34375 (GeneID 42715) #2: raw ATP luminescence, replicate 1 = 52070; raw ATP luminescence, replicate 2 = 54880

Looked up above:
Under “raw ATP luminescence, replicate 2”, mdy (GeneID 44887) #1 shows 2.55e5
mdy (GeneID 44887) #2, raw ATP luminescence, replicate 1 = 91413

The results go on.
Odj (GeneID 42145): raw ATP luminescence, replicate 1 = 43833; raw ATP luminescence, replicate 2 = 41250
CG11034 (GeneID 33810) #1: raw ATP luminescence, replicate 1 = 35693; raw ATP luminescence, replicate 2 = 29387
CG11034 (GeneID 33810) #2: raw ATP luminescence, replicate 1 = 20673; raw ATP luminescence, replicate 2 = 23027
CG7800 (GeneID 40963): raw ATP luminescence, replicate 1 = 66963; raw ATP luminescence, replicate 2 = 59320
CG1513 (GeneID 36028) #1: raw ATP luminescence, replicate 1 = 74770; raw ATP luminescence, replicate 2 = 69623
CG1513 (GeneID 36028) #2: raw ATP luminescence, replicate 1 = 1.93e5; raw ATP luminescence, replicate 2 = 1.97e5
CG1513 (GeneID 36028) #3: raw ATP luminescence, replicate 1 = 40117; raw ATP luminescence, replicate 2 = 1.01e5
